The record followed here is publication doi:10.1101/2021.12.08.471779.

The chains behind the UniProt entries cited, without tags or fusion partners. Where a name states a change or a piece, a line headed by the entry shows the natural chain unless it says otherwise.
UniProt P02929, whole entry, looked up, stated change not applied: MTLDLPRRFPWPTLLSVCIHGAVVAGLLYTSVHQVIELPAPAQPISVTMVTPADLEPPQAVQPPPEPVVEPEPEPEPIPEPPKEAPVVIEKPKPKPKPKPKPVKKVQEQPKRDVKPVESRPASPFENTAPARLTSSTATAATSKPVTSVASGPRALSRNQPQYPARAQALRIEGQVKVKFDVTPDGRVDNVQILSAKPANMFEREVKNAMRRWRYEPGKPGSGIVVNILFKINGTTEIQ

Numbering of substitutions follows the chain as printed. No constants are given. Whether binding was seen depends on the method and setting. In cells and extracts the contact can be indirect. Some binding calls cover weakened binding; strength is not graded here.

Experiment in all cases: cross-linking
In experiment [1] the target is T1, FepA S92C (Escherichia coli K-12) (UniProt P05825).
T1 sequence: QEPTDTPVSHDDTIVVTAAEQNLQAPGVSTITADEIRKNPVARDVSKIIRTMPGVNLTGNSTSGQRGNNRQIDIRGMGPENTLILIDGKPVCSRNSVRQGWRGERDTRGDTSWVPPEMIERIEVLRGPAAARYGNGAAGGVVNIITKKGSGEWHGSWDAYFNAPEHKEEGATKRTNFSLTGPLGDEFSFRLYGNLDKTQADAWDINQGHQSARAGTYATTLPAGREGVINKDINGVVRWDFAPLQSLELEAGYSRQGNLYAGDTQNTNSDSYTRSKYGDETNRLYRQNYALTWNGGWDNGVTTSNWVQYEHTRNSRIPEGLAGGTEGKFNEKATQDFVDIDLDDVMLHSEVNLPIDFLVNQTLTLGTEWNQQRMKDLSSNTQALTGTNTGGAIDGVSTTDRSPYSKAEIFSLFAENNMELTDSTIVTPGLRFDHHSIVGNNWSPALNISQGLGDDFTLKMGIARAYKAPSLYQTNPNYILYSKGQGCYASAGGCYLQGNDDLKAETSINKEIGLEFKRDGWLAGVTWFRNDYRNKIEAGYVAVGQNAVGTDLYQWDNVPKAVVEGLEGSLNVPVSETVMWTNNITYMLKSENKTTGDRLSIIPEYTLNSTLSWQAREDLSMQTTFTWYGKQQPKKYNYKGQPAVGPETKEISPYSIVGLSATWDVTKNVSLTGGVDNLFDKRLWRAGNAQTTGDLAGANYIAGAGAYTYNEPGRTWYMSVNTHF

For experiment [2], the target named is T2, FepA V91C (Escherichia coli K-12) (UniProt P05825).
T2 sequence: T1 sequence with V91C, C92S

Experiment [3] deals with T3, FepA P243C (Escherichia coli K-12) (UniProt P05825).
T3 sequence: T1 sequence with C92S, P243C

Regarding “TonB C18G A209C (from UniProt P02929 1-239)”, the binding entry in experiment [1], in experiment [2] and in experiment [3] was “no binding” each time.

Regarding “TonB C18G H20A R204C (from UniProt P02929 1-239)”, the binding entry in experiment [3] is recorded as “binds”.

For “TonB C18G M201C (from UniProt P02929 1-239)”, the binding result in experiment [1] and in experiment [2] was “no binding” throughout.

Turning to “TonB C18G N208C (from UniProt P02929 1-239)”, the binding result in experiment [1] is reported as “no binding”; in experiment [2] it was “no binding”; in experiment [3], “binds weakly”.

Consider “TonB C18G Q160C (from UniProt P02929 1-239)”, for which the binding result in experiment [1], in experiment [2] and in experiment [3] was “no binding” each time.

For the substance “TonB C18G R204C (from UniProt P02929 1-239)”, the binding entry is listed as “no binding” in experiment [1], “no binding” in experiment [2] and “binds” in experiment [3].

Take “TonB C18G R212C (from UniProt P02929 1-239)”: the binding result is on record as “no binding” in experiment [1], “no binding” in experiment [2] and “binds” in experiment [3].

With “TonB C18G R214C (from UniProt P02929 1-239)”, the binding entry in experiment [1] and in experiment [2] was “no binding” in each case.

Take “TonB C18G V206C (from UniProt P02929 1-239)”: the binding entry in experiment [1], in experiment [2] and in experiment [3] was “no binding” each time.
